Test results taken from article PMC5871718 (Cell, 2018).
Results are given in words; binding and its absence hold for the method and conditions named. Binding seen in cells or lysates may run through a third protein. A yes stands for co-enrichment or nearness to the bait. Other partners may have been found.

Chains of the proteins cited; added tags and fusions are not shown. Residues count along the entry.
UniProt Q4ZG55: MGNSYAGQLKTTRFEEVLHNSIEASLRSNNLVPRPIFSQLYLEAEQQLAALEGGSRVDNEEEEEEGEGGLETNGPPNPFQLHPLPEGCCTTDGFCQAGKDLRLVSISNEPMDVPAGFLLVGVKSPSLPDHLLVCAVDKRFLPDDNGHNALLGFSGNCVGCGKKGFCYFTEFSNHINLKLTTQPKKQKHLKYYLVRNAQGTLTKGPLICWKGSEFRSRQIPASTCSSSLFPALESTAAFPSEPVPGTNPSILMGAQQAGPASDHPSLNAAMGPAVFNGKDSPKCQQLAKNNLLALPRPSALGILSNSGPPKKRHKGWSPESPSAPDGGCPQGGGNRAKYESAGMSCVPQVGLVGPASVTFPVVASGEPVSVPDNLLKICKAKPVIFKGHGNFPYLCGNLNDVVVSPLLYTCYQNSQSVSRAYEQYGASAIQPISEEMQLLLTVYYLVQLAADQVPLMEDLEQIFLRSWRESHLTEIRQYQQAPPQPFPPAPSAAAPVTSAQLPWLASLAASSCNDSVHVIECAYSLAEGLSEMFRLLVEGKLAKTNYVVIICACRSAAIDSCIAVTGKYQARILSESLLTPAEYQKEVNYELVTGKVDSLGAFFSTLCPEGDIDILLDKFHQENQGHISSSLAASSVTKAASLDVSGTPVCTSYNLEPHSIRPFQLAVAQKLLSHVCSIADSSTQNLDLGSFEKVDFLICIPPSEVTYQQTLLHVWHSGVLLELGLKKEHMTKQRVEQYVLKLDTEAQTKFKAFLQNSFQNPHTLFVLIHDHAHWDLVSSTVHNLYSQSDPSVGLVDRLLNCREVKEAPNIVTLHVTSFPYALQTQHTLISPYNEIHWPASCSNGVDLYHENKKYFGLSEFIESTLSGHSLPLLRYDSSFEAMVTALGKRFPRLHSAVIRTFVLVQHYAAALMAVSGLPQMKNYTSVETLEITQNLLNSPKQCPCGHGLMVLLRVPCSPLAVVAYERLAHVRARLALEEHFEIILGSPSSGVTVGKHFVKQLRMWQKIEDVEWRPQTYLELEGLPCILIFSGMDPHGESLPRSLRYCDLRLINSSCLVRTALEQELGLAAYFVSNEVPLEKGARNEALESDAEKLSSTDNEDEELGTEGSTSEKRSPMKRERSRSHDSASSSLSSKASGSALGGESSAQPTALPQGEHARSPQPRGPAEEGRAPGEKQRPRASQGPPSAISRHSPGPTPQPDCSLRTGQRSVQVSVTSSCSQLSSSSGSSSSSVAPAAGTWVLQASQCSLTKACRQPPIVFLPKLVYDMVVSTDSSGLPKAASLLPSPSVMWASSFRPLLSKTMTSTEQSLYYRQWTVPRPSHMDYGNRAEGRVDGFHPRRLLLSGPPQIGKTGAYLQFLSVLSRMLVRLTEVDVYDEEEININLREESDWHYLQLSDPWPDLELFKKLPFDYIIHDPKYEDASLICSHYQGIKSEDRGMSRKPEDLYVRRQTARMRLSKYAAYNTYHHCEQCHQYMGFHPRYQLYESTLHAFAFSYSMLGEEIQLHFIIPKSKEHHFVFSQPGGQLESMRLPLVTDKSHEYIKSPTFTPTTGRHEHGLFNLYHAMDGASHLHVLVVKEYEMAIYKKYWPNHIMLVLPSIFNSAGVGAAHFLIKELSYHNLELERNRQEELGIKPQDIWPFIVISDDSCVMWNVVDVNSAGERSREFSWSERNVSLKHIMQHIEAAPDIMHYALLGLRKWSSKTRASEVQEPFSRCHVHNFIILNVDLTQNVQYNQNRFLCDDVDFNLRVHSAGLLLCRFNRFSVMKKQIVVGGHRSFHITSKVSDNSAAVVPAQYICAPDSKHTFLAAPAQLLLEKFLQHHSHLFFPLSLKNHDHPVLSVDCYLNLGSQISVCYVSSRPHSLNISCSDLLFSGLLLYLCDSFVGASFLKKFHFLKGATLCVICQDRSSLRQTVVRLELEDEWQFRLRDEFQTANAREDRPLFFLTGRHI
UniProt P08238: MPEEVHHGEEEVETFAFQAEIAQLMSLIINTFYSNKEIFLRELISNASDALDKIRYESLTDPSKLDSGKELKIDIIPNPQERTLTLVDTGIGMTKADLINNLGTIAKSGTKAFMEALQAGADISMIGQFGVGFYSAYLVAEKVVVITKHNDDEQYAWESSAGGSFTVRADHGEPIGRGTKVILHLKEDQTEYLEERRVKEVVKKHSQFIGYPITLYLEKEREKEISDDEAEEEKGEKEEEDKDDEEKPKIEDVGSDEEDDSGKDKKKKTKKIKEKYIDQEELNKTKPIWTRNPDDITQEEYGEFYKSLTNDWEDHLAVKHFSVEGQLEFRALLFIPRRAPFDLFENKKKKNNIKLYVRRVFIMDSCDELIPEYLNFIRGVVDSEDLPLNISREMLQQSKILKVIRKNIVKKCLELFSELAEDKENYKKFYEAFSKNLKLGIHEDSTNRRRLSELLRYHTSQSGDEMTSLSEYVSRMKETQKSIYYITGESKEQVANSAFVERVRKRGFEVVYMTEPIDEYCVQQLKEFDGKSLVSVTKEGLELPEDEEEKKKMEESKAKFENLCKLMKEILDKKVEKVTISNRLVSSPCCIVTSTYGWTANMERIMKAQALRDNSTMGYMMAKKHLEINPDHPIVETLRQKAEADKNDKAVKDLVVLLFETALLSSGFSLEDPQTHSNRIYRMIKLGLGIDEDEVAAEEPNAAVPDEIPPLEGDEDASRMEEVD
UniProt P14625, residues 22-803: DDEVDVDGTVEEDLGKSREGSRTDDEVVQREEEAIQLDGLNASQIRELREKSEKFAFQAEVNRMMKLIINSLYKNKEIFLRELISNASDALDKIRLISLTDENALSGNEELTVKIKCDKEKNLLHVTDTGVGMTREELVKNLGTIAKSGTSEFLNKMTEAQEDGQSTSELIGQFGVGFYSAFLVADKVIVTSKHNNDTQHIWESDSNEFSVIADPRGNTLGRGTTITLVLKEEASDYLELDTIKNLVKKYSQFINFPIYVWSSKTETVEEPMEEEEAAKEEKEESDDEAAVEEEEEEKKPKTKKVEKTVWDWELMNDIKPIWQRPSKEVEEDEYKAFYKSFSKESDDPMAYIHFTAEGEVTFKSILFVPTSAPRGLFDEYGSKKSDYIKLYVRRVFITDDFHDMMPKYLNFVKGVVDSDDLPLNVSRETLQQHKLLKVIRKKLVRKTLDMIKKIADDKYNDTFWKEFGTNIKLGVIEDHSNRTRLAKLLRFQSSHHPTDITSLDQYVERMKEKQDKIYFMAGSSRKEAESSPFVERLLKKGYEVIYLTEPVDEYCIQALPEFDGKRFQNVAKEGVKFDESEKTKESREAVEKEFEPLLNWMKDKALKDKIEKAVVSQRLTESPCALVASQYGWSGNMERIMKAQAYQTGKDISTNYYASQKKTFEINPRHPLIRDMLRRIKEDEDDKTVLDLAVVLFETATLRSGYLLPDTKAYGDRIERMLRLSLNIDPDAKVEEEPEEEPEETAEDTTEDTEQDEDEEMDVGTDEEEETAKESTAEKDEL

Biological target: GREB1 (human (endogenous in MCF-7)) (UniProt Q4ZG55)
Assay: affinity purification with mass spectrometry; co-immunoprecipitation of endogenous GREB1 from MCF-7 cell extract (1 mg protein; 50 mM Tris-HCl pH 7.5, 150 mM NaCl, 0.8% IGEPAL CA-630) with 10 ug anti-GREB1 or rabbit IgG control, Protein G beads, 4°C; extract pre-incubated 1 h with vehicle (DMSO) or 10 uM 17-AAG; read-out LC-MS/MS, fold change relative to isotype IgG control

| binding | Substance |
| --- | --- |
| binds | HSP90AA1 (from UniProt P07900 1-732) |
| binds | HSP90AB1 (from UniProt P08238 1-724) |
| binds | HSP90B1 (from UniProt P14625 22-803) |
